In the supplement of paper PMC11006884:
The list shows a part of the results, in another mix than the full data.

By UniProt entry, the sequences of proteins in these tests, tags left out. Where a name states a change or a piece, a line headed by the entry shows the natural chain unless it says otherwise.
UniProt P14866: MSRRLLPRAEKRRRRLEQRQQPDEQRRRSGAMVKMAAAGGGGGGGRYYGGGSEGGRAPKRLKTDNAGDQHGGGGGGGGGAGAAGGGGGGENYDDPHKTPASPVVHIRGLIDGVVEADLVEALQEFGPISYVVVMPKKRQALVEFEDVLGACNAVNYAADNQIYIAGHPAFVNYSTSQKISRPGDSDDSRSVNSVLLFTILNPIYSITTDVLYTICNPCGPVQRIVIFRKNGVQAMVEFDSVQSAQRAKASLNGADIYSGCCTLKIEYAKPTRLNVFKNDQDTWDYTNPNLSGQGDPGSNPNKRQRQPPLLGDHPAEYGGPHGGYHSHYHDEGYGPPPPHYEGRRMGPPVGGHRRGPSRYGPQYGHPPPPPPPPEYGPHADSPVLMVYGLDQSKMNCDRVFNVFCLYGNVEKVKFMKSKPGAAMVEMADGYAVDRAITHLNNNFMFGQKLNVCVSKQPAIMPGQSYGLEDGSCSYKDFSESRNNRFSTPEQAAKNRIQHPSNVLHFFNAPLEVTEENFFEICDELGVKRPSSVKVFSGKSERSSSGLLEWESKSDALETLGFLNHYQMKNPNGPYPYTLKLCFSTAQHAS
UniProt P17655: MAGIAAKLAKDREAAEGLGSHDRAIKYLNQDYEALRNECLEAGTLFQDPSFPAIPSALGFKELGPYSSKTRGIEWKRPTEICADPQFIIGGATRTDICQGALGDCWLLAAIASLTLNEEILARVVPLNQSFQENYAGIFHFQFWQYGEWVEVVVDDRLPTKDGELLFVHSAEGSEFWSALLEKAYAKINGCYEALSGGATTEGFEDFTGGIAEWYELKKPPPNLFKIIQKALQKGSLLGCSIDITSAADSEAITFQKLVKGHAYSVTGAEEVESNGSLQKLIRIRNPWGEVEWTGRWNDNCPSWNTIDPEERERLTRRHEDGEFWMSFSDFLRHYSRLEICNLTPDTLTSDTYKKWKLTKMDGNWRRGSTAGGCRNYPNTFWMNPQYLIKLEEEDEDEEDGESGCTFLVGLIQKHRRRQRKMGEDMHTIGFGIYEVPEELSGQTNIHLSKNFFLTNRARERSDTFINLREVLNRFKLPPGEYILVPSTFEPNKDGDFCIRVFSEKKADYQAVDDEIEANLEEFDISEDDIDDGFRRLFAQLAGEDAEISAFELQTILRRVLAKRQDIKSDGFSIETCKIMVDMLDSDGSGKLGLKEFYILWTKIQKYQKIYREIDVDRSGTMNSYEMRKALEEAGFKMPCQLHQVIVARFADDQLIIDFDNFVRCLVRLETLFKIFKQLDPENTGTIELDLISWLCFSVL
UniProt P14314: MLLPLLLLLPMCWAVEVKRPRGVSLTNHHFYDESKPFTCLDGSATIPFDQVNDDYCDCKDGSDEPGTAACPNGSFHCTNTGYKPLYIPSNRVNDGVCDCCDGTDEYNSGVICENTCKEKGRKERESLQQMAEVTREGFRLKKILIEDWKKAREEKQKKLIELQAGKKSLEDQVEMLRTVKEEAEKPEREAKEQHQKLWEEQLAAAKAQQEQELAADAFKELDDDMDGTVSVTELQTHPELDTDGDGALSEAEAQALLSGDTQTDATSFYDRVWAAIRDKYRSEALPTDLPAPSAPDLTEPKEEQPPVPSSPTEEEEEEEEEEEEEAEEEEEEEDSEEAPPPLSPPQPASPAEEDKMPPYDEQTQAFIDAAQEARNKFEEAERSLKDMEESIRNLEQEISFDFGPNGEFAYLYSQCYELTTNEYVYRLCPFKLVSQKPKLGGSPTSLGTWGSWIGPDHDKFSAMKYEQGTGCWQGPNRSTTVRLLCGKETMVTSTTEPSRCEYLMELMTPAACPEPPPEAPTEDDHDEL
UniProt P13716: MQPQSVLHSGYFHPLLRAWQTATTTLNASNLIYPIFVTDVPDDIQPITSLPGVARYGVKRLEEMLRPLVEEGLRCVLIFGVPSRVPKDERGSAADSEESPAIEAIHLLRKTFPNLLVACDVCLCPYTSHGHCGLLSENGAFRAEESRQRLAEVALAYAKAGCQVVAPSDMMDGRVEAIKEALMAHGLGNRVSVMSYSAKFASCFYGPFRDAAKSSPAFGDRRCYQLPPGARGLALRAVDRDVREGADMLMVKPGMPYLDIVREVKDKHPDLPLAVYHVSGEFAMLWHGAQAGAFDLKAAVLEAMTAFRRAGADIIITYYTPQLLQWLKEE
UniProt P11274: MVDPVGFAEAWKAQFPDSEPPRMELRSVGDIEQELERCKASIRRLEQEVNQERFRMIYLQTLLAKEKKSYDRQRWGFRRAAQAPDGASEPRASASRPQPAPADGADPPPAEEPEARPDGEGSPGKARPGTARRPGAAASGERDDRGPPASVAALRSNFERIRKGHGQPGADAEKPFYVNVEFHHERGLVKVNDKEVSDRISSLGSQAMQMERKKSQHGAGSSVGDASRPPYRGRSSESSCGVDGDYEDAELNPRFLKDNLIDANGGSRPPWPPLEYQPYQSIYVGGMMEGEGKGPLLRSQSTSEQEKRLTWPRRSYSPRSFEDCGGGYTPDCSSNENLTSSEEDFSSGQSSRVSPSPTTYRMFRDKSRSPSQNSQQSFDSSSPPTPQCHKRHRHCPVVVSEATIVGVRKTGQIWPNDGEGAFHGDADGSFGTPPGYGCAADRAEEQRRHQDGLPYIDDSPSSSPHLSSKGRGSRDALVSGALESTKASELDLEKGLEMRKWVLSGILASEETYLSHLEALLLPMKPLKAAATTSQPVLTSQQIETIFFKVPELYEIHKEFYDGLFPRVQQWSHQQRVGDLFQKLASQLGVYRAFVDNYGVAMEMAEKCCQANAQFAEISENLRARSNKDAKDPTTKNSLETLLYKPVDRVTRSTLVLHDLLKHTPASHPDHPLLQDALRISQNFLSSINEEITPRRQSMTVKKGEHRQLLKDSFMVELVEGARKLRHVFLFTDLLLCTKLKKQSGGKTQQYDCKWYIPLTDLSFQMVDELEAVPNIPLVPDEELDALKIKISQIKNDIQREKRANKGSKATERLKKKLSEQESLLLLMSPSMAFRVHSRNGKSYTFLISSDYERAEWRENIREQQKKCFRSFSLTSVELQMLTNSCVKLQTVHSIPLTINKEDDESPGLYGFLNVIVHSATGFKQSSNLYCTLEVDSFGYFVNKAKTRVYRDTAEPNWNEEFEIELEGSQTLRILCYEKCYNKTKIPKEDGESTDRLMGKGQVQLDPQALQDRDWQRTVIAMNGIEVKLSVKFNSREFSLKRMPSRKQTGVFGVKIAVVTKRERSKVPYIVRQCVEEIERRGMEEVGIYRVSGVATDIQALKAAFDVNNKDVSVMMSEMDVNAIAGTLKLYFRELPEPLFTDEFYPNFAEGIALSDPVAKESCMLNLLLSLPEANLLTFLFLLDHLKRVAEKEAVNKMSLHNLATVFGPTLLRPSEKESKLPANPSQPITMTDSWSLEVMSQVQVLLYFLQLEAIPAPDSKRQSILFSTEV
UniProt P13797: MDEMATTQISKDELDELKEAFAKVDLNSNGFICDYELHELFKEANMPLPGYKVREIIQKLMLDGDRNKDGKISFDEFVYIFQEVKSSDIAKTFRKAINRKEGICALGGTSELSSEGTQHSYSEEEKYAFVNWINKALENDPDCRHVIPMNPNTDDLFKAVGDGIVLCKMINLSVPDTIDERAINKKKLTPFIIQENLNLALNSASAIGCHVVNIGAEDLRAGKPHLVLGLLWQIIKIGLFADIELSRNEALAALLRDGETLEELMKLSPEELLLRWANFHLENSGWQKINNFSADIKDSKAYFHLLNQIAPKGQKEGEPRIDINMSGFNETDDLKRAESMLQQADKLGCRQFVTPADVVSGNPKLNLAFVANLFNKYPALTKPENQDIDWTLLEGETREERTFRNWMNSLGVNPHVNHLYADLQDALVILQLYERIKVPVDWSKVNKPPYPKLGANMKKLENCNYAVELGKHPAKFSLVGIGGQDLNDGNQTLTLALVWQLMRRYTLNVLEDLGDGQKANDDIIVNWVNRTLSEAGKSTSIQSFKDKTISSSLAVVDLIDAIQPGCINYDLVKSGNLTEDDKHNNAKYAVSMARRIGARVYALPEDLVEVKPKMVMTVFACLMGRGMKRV
UniProt P11047: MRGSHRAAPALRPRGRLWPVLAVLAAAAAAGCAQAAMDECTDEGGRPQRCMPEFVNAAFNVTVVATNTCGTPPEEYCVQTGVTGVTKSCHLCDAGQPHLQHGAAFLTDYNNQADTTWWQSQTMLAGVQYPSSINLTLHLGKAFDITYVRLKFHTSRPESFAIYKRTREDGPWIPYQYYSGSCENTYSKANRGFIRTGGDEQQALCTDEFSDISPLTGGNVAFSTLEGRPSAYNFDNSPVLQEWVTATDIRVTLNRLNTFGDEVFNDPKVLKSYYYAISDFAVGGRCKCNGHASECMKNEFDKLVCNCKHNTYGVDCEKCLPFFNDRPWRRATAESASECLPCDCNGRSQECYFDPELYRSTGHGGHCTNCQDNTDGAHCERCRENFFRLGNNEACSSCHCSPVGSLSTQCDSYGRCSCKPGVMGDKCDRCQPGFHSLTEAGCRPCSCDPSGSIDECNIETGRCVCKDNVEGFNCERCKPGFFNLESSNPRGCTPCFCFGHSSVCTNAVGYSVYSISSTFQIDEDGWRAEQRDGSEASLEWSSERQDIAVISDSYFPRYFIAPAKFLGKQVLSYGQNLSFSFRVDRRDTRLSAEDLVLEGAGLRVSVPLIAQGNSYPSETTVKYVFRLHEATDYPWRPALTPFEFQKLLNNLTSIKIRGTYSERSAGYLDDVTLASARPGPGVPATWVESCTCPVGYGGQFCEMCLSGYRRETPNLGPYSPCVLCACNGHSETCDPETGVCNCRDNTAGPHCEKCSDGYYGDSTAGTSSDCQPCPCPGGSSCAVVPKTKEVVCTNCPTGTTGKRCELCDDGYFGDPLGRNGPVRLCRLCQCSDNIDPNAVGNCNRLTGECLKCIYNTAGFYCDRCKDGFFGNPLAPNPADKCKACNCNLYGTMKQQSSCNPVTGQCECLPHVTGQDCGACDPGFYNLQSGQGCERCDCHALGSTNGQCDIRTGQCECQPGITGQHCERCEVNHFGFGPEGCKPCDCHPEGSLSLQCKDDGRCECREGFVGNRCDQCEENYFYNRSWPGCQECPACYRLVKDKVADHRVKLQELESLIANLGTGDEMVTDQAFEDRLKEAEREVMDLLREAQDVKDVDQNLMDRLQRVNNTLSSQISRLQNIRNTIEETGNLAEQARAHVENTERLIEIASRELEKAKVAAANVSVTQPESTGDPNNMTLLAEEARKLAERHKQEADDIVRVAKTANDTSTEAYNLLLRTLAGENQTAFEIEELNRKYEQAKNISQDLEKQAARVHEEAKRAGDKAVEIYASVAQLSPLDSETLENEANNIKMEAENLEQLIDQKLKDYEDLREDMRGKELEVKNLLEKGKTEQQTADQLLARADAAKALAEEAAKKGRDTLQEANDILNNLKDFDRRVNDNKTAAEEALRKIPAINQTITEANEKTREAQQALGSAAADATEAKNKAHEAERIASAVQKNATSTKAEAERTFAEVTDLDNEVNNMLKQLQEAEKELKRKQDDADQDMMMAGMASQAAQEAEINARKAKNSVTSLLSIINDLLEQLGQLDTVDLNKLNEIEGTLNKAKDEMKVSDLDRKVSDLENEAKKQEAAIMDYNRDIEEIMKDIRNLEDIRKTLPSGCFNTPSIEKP
UniProt P12004, whole entry, looked up: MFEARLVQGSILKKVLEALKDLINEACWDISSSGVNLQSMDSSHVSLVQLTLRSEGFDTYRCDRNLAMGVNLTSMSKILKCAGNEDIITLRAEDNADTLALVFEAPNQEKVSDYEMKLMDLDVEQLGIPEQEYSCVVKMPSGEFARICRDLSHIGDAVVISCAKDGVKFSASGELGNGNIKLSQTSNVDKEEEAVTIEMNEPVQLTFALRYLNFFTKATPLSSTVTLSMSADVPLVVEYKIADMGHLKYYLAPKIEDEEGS
UniProt P15311, whole entry, looked up: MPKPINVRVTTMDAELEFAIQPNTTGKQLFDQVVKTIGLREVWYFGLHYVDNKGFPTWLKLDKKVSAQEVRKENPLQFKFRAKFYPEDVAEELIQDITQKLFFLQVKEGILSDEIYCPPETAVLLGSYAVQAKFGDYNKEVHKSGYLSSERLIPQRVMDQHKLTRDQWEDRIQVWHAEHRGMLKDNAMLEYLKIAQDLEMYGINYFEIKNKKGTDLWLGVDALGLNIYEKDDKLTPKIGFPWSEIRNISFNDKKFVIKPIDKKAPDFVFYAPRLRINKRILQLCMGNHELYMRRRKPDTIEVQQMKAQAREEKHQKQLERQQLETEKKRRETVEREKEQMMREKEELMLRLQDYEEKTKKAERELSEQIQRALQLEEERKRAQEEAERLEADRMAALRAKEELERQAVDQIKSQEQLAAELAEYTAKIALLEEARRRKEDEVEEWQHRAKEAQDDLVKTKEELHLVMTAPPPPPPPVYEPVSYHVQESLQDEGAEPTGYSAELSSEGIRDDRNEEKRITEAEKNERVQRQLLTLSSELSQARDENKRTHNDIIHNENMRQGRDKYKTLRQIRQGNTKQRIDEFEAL

Compound: COC(=O)C#Cc1ccccc1 [methyl 3-phenylpropiolate]
Test: log2 ratio of iodoacetamide-alkyne labeling of the cysteine site, DMSO over compound (competition); higher = stronger covalent engagement of the cysteine by the compound, active = 1 or more
Conditions: 500 µM; treatment time 1 h; system: HEK293T cell lysate
In short: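 HEK293T lysate at 2 mg/mL was treated with vehicle or electrophile (500 µM) for 1 h at ambient temperature, then labelled with iodoacetamide alkyne (1 h), clicked to sCIP-TMT reagents, pooled, digested with trypsin overnight at 37 °C, enriched on streptavidin and eluted with acid. Peptides were analysed by Orbitrap Eclipse LC-MS/MS with FAIMS and quantified in FragPipe, using duplicate channels and three replicates, with cysteines quantified in only one replicate excluded. The log2 competition ratio for each cysteine is the mean control-channel reporter intensity divided by the mean compound-channel reporter intensity.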

Target	log2 ratio of iodoacetamide-alkyne labeling
EPRS C856 (UniProt P07814)	inactive: 0.0127
HNRNPL C472 (UniProt P14866)	inactive: -0.0842
CAPN2 C640 (UniProt P17655)	inactive: 0.517
PRKCSH C471 (UniProt P14314)	inactive: 0.0601
PYGB C326 (UniProt P11216)	inactive: 0.332
ALAD C75 (UniProt P13716)	inactive: -0.37
RPSA C163 (UniProt P08865)	inactive: -0.132
EEF2 C751 (UniProt P13639)	inactive: 0.116
BCR C395 (UniProt P11274)	active: 1.17
PLS3 C33 (UniProt P13797)	active: 1.04
EEF2 C290 (UniProt P13639)	inactive: 0.0608
LAMC1 C351 (UniProt P11047)	inactive: 0.736
PCNA C81 (UniProt P12004)	inactive: 0.0632
EZR C117 (UniProt P15311)	inactive: 0.178
TOP2A C455 (UniProt P11388)	inactive: 0.415

Taken from above:
ALAD C75 (UniProt P13716) – log2 ratio of iodoacetamide-alkyne labeling: inactive: -0.37
EEF2 C751 (UniProt P13639) – log2 ratio of iodoacetamide-alkyne labeling: inactive: 0.116
